Source: paper PMC11653680
These are yes or no findings as the source states them, for the method shown. Binding seen in cells or lysates may run through a third protein. Some binding calls cover weakened binding; strength is not graded here.

Sequences of proteins named here, by UniProt entry; tags and fusion partners are left off. Residues count along the entry.
UniProt Q9D1D6, residues 33-245: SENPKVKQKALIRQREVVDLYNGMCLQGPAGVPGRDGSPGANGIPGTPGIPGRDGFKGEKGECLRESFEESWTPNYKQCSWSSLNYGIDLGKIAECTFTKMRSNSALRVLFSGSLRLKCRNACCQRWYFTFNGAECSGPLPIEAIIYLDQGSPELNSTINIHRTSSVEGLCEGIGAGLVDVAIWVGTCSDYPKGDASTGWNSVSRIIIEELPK

Columns and labels:
[1] = molecular target: Epidermal growth factor receptor (EGFR), as in the cellular co-immunoprecipitation (UniProt Q01279); test: co-IP; cellular co-immunoprecipitation of CTHRC1 and EGFR, IP followed by immunoblotting; cells and antibodies not told in the text shown
[2] = molecular target: Epidermal growth factor receptor (EGFR), as in the GST pull-down (UniProt Q01279); test: pull-down; GST pull-down of CTHRC1 and EGFR; which partner carried GST and the conditions are not told in the text shown

Question: Which binding [1] does the source give for “Collagen triple helix repeat containing 1 (CTHRC1), as in the cellular co-immunoprecipitation (from UniProt Q9D1D6 33-245)” here?
Answer: Its binding is “binds”.

Question: “Collagen triple helix repeat containing 1 (CTHRC1), as in the GST pull-down (from UniProt Q9D1D6 33-245)” was tested. Which binding [2] did it give?
Answer: The binding was “binds”.
